Reference: patent US12612430 (dated 2026)
Square brackets hold non-standard residues; d marks the D form. Ends that are not written are not given here. Dopa = N[C@@H](Cc1ccc(O)c(O)c1)C(=O)O; Hyp = O=C(O)[C@@H]1C[C@@H](O)CN1

Experiment: general procedure: Fmoc solid-phase peptide synthesis; Fmoc-Lys-Boc-Wang resin (GL Biochem)
Settings: whole synthesis, scale of the general procedure 9.15 g resin, acetate (anion exchange with ammonium acetate/HAc)
[1] = HPLC, UV at 220 nm (Shimadzu LCMS-8050 / LC-20, ZORBAX Eclipse SB-C18)

| Substance | crude purity (method not given) [1] [%] | final HPLC purity [1] [%] | crude purity (method not given) (UV 220 nm) [%] |
| --- | --- | --- | --- |
| 3,4-dihydrocinnamic acid-Ala-Lys-Pro-Ser-Tyr-Hyp-Thr-Tyr-Hyp-Lys | 79.183 | – | – |
| AKPSY[Hyp]TY[Hyp]K | – | 98 | 77.256 |
| AKPSY[Hyp]T[Dopa][Hyp]K | 74.493 | – | – |
| AK[Hyp]SY[Hyp]T[Dopa][Hyp]K | 75.365 | – | – |
